Among the data in the supplement of paper PMC12819154, “High-throughput peptide-centric local stability assay extends protein–ligand identification to membrane proteins, tissues and bacteria” (Nature Structural & Molecular Biology, 2025) are log2 fold change values, retold here.

Protein sequences, listed by entry. Tags and fused reporters are not part of them. Lines headed by an entry give the natural chain unless they say otherwise; changes in a name come on top.
UniProt Q62095: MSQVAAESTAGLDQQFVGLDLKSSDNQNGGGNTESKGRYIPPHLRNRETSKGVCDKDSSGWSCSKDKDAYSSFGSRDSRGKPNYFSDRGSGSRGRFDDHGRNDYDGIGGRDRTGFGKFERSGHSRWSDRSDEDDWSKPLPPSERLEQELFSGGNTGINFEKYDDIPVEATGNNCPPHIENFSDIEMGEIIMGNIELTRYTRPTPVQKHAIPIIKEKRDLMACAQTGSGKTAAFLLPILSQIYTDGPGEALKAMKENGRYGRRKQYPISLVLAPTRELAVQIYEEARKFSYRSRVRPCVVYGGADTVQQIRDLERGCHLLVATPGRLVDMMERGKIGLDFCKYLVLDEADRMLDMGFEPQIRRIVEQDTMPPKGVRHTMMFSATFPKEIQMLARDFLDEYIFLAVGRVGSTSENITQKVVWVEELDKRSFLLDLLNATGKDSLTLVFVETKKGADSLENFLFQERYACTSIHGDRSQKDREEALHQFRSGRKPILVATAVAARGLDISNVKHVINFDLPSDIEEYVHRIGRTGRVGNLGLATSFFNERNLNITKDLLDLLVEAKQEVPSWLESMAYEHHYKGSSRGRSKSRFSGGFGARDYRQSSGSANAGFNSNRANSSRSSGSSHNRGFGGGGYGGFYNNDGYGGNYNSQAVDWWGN
UniProt Q61469: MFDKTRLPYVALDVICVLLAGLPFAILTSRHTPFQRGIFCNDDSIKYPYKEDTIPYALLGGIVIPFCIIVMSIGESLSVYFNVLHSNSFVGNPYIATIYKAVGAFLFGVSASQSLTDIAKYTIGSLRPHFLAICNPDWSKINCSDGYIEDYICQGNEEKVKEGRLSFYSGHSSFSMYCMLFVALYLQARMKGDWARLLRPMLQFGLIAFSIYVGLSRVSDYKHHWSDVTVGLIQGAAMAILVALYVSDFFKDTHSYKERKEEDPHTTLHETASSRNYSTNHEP
UniProt Q68FF9: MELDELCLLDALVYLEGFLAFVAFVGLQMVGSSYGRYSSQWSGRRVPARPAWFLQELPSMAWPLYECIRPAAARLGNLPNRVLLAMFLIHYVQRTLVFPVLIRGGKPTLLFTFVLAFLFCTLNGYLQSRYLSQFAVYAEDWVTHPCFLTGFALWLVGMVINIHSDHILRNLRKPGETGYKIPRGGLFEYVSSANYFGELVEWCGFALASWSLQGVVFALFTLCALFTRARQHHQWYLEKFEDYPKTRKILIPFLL
UniProt Q69Z99: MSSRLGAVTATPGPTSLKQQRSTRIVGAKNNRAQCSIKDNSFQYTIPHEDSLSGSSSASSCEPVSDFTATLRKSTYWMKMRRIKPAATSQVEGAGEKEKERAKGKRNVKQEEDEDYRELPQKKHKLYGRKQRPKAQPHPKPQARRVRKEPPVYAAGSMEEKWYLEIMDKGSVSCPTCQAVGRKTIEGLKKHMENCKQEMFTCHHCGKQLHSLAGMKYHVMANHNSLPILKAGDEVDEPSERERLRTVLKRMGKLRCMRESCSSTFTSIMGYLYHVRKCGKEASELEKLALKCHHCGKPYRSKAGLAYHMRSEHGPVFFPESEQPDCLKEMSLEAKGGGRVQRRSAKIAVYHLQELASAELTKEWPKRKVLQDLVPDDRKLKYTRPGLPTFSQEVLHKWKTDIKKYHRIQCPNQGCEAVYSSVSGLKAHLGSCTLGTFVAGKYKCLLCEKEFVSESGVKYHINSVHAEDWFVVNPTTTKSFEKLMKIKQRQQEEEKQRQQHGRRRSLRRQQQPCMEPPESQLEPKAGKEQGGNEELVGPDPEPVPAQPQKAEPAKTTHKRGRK
UniProt Q64373, whole entry: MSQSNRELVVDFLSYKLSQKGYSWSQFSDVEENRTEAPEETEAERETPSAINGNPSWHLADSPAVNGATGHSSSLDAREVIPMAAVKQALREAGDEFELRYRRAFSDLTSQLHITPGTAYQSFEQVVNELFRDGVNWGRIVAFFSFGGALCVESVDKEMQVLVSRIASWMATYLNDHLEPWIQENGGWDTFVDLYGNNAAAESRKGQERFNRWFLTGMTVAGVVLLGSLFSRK
UniProt Q64433, whole entry: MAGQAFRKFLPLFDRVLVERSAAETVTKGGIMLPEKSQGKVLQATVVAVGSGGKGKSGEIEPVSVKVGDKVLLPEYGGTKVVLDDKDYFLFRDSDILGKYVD
UniProt Q66JZ4: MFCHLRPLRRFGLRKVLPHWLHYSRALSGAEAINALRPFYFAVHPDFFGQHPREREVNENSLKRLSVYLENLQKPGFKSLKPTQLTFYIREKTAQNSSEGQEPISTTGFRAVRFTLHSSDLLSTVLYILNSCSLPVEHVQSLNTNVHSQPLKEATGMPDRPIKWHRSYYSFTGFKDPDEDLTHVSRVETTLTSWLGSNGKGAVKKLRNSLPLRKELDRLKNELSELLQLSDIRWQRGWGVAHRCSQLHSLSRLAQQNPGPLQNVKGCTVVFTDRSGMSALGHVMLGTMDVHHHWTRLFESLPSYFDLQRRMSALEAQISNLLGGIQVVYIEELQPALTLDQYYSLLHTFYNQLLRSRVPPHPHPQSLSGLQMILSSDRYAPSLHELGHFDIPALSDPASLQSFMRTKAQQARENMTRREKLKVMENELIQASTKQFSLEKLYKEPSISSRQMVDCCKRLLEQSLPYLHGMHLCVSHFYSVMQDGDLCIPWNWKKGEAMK
UniProt Q62167: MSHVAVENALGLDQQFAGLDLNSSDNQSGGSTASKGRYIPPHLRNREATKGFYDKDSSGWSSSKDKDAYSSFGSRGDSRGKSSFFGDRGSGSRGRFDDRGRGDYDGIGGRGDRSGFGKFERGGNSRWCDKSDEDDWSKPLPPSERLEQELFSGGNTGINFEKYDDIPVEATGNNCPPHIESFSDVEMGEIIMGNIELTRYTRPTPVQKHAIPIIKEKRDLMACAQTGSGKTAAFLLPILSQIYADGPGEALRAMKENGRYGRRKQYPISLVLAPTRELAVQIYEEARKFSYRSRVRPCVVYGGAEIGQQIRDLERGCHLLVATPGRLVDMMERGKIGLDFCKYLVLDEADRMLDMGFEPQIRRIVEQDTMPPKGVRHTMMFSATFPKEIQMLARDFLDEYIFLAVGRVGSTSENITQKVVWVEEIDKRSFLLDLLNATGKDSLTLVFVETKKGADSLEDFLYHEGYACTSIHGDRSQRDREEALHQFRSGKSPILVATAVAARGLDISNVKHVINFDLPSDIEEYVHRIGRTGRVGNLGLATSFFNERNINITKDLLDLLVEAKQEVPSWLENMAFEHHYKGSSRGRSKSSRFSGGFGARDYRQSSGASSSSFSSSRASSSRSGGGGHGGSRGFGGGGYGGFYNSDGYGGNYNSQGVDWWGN
UniProt Q64176: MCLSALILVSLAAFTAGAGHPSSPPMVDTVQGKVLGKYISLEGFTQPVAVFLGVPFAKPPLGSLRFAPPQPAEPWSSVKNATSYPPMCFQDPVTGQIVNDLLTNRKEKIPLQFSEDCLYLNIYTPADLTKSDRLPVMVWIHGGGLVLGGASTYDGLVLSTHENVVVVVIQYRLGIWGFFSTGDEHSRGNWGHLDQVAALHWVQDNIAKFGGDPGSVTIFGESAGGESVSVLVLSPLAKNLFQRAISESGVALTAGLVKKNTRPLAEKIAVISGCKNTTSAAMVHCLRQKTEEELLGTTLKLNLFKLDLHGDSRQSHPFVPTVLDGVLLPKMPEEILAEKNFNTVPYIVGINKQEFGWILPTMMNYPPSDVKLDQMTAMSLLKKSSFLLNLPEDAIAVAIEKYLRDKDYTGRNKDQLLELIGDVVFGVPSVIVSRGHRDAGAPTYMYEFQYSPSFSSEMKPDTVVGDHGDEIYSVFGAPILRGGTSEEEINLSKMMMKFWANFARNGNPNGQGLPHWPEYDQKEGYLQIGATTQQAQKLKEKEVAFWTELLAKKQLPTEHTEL
UniProt Q62108, whole entry, looked up: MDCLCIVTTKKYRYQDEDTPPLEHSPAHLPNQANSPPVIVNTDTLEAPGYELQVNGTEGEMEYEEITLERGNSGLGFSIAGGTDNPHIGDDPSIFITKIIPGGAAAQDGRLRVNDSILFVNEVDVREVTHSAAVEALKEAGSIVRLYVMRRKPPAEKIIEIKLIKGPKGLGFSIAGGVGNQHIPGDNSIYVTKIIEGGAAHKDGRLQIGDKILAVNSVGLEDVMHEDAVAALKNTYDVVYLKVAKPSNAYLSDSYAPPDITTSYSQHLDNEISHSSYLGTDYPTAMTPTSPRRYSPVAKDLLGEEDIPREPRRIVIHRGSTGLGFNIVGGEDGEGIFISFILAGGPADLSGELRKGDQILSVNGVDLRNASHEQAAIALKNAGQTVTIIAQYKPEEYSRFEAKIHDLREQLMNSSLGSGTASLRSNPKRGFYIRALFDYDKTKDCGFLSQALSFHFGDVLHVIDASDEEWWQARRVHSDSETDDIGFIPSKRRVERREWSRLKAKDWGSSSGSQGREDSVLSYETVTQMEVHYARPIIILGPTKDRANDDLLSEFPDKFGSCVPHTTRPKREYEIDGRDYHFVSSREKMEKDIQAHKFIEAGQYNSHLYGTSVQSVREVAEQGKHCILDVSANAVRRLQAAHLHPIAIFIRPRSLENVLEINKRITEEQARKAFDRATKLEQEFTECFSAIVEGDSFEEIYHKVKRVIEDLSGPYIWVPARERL
UniProt Q61550: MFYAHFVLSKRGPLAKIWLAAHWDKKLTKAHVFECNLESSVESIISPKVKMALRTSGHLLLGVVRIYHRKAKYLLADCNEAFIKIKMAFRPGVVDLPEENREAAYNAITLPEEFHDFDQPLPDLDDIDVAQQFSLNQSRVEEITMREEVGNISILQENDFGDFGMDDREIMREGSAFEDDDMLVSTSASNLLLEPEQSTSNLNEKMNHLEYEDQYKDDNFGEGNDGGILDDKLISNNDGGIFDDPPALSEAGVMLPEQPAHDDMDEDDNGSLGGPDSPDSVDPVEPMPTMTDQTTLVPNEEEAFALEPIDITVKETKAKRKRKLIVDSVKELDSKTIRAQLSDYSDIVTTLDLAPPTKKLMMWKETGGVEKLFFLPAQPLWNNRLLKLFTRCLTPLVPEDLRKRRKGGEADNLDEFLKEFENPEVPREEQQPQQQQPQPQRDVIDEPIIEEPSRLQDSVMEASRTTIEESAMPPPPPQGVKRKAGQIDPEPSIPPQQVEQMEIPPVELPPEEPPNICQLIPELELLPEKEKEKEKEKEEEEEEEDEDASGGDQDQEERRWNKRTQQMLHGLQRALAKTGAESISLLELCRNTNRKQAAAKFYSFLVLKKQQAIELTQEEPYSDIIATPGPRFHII
UniProt Q64704: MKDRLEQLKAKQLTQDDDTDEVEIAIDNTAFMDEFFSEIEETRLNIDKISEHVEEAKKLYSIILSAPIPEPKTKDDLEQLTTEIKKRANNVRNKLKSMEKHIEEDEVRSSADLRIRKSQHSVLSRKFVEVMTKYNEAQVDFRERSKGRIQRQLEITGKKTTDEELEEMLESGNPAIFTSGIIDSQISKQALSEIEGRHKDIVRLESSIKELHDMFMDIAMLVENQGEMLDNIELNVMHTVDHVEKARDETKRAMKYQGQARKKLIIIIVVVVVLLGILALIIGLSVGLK
UniProt Q62452: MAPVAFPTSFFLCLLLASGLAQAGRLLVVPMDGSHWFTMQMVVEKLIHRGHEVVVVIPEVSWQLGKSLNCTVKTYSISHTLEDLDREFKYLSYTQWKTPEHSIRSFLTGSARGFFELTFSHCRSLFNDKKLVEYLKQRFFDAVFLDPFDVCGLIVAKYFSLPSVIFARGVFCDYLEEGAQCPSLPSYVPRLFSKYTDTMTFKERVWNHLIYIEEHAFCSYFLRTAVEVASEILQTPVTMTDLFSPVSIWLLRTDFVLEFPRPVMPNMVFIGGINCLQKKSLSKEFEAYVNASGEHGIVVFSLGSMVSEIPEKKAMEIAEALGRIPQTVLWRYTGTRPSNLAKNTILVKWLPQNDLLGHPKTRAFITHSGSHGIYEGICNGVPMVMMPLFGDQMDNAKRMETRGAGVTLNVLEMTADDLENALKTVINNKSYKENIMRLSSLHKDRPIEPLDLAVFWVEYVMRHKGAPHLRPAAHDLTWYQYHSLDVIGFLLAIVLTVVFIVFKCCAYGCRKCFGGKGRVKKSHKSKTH
UniProt Q61644: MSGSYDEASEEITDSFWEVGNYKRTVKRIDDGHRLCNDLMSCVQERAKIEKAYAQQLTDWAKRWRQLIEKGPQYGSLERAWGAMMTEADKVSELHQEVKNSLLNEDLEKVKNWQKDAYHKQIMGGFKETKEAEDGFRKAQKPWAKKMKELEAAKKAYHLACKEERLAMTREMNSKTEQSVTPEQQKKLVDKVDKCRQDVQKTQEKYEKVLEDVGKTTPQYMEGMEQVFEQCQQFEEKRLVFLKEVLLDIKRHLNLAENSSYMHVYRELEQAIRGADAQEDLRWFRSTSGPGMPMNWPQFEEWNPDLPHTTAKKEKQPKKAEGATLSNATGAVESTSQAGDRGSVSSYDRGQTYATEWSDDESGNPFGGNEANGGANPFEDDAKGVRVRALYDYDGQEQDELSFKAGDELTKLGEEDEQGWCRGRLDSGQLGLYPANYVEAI

This is one part of the list. Most values lie at the level of the controls, where differences are scatter.

Compound in this experiment: CN[C@@H]1C[C@H]2O[C@@](C)([C@@H]1OC)n1c3ccccc3c3c4c(c5c6ccccc6n2c5c31)C(=O)NC4 [staurosporine]
The experiment is described as follows: log2 fold change of tryptic peptide abundance, ligand vs vehicle (limited proteolysis) (log2 ratio); higher = more trypsin-susceptible (destabilized). The following applies: ligand concentration: 20 uM; sample: mouse liver crude lysate; replicate design: treated separately.
For the target “UniProt Q62095 (peptide sequence: SGRKPILVATAVAAR, peptide start residue: 488)”, the log2 fold change is -0.0896. “UniProt Q62356 (peptide sequence: SFDNGDSHLDSSEFLK, peptide start residue: 153)”: the log2 fold change was determined as 0.353.

For the target “UniProt Q68ED3 (peptide sequence: CNNNLSEEKEALGK, peptide start residue: 473)”, the log2 fold change was -0.803. The same measure for “UniProt Q61469 (peptide sequence: NYSTNHEP, peptide start residue: 276)”: -0.0913. With “UniProt Q64331 (peptide sequence: MSQSIIVSGESGAGKTENTK, peptide start residue: 143)”, the log2 fold change is -1.01. As to “UniProt Q61418 (peptide sequence: LLGIITKK, peptide start residue: 789)”, the log2 fold change is 0.118. Turning to “UniProt Q68FF9 (peptide sequence: QHHQWYLEKFEDYPK, peptide start residue: 231)”, the log2 fold change is 0.545. As to “UniProt Q69Z99 (peptide sequence: VLQDLVPDDR, peptide start residue: 369)”, the log2 fold change was -0.142.

With “UniProt Q66T02 (peptide sequence: SLSLPALRPSGAGPPVSER, peptide start residue: 232)”, the log2 fold change was -0.166.

“UniProt Q61502 (peptide sequence: STMAAQNLPEQHVSER, peptide start residue: 255)”: the log2 fold change is -0.259.

With “UniProt Q640N3 (peptide sequence: ELHPVVPLVAPQR, peptide start residue: 1072)”, the log2 fold change was -0.306. As for “UniProt Q61830 (peptide sequence: FIWMDGSK, peptide start residue: 872)”, the log2 fold change turned out to be 0.108.

In the case of “UniProt Q64373 (peptide sequence: EVIPMAAVK, peptide start residue: 79)”, the log2 fold change was 0.118. Take “UniProt Q69ZH9 (peptide sequence: TSEDNMTDMVTHMPDRYK, peptide start residue: 1063)”: the log2 fold change came out at 0.754. Take “UniProt Q64433 (peptide sequence: DSDILGKYVD, peptide start residue: 93)”: the log2 fold change worked out at 0.595. In the case of “UniProt Q66JZ4 (peptide sequence: VPPHPHPQSLSGLQMILSSDR, peptide start residue: 358)”, the log2 fold change turned out to be 0.426.

For the target “UniProt Q62167 (peptide sequence: GDYDGIGGRGDR, peptide start residue: 102)”, the log2 fold change is -0.22.

“UniProt Q64176 (peptide sequence: LDQMTAMSLLKK, peptide start residue: 372)”: the log2 fold change is -0.675. As for “UniProt Q62108 (peptide sequence: ALFDYDKTK, peptide start residue: 588)”, the log2 fold change was 0.00243.

Regarding “UniProt Q62210 (peptide sequence: AVEDFSSR, peptide start residue: 159)”, the log2 fold change was 0.268. On to “UniProt Q61550 (peptide sequence: IWLAAHWDK, peptide start residue: 17)”, for which the log2 fold change came out at 0.336.

Regarding “UniProt Q64704 (peptide sequence: KFVEVMTK, peptide start residue: 126)”, the log2 fold change is 0.261.

Consider “UniProt Q62432 (peptide sequence: VLTQMGSPSVR, peptide start residue: 452)”, for which the log2 fold change worked out at 0.547. “UniProt Q62452 (peptide sequence: YTGTRPSNLAK, peptide start residue: 339)”: the log2 fold change is -0.436. Consider “UniProt Q62219 (peptide sequence: VQNHLPASGPPQPPAASPTR, peptide start residue: 170)”, for which the log2 fold change was -0.175. Then “UniProt Q64471 (peptide sequence: KNNIPFQMHTVELRK, peptide start residue: 23)”, with 0.186; and “UniProt Q61644 (peptide sequence: KAQKPWAK, peptide start residue: 140)”, with -0.335.
